Measurements published in article PMC3770619.
Residue numbers refer to the chain shown, from its start. No constants are given. Whether binding was seen depends on the method and setting. In cells and extracts the contact can be indirect. For part of these data: Binding can be weak; no strength is given. Where a sequence is shown, tags or fusion partners need not be part of it.

By UniProt entry, the sequences of proteins in these tests, tags left out. Where a name states a change or a piece, a line headed by the entry shows the natural chain unless it says otherwise.
UniProt A0A8M1N207: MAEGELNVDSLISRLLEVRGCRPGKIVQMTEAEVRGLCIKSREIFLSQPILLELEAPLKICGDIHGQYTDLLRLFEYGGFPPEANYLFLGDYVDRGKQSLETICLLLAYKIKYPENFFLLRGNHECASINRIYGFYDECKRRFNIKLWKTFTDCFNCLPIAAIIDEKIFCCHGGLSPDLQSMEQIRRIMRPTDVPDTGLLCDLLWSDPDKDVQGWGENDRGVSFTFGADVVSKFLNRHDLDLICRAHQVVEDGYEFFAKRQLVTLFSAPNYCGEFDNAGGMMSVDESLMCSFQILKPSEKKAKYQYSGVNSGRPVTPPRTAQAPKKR
UniProt Q1JPZ8: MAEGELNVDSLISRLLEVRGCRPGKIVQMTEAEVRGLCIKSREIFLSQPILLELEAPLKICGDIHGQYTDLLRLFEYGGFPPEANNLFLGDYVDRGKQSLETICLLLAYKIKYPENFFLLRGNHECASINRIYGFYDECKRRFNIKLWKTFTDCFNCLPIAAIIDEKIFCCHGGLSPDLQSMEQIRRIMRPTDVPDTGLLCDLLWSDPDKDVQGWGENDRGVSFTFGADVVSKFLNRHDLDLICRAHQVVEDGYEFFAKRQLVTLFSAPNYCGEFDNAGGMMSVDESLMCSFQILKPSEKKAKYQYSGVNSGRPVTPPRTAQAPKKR

What was measured:
[1] = target: T1, Myc-tagged zebrafish Mypt1, KAKA mutant (null) (zebrafish) (UniProt Q6DRG7); experiment: co-IP; Myc-Mypt1 and GFP-PP1beta or GFP co-expressed in HEK293T, lysed in NETN buffer, IP with anti-myc, blotted with anti-GFP and anti-myc
T1 sequence: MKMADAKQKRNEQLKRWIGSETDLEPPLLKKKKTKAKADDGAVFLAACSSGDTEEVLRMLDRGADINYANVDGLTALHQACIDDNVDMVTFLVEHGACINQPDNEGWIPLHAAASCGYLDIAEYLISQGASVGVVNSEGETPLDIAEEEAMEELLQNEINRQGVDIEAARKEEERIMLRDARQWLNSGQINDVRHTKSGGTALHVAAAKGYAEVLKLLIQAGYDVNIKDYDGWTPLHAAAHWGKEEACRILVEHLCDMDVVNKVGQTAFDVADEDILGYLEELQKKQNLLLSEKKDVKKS

[2] = target: T2, GST fused wild type zebrafish Mypt1 1-300 (KVKF) (zebrafish) (UniProt Q6DRG7); experiment: pull-down; purified GST or GST-Mypt1 1-300 proteins (increasing amounts) incubated with HEK293T lysates in NETN buffer (20 mM Tris-HCl pH 8.0, 100 mM NaCl, 1 mM EDTA, 0.5% NP-40), sedimented with glutathione beads, blotted with anti-GFP; only the target purified
T2 sequence: T1 sequence with A36V, A38F

[3] = target: T3, GST fused zebrafish Mypt1 1-300 mutant (KMKF), sq181 allele (zebrafish) (UniProt Q6DRG7); experiment: as above
T3 sequence: T1 sequence with A36M, A38F

Substance | binding [1] | binding [2] | binding [3]
GFP-tagged zebrafish PP1Ba (protein phosphatase 1 beta paralog a, product of ppp1cba) (from UniProt A0A8M1N207) (enzyme) | no binding | binds | binds weakly
GFP-tagged zebrafish PP1Bb (protein phosphatase 1 beta paralog b, product of ppp1cbb) (from UniProt Q1JPZ8) (enzyme) | no binding | binds | binds weakly
